Experimental findings from paper PMC1090571 are described below.

Sequences of proteins named here, by UniProt entry; tags and fusion partners are left off. Residues count along the entry.
UniProt P14210, residues 32-728: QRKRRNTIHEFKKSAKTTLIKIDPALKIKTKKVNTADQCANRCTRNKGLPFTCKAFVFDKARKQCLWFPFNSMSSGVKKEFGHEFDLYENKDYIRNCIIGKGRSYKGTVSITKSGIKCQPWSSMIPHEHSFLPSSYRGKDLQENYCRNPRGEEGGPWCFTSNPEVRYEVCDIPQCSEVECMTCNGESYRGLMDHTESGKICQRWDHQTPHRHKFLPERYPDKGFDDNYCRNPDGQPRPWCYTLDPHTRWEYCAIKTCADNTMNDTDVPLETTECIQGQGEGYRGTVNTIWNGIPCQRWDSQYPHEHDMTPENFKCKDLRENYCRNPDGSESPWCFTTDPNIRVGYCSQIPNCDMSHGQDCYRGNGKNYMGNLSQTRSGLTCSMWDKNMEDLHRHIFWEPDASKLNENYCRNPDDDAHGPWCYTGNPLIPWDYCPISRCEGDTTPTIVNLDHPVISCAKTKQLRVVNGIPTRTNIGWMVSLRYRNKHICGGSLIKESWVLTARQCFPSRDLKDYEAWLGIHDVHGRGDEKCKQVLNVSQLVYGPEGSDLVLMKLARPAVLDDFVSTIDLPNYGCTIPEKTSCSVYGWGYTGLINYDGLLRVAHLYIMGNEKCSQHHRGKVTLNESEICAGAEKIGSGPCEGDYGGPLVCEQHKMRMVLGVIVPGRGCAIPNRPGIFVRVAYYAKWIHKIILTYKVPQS

No constants are given. Whether binding was seen depends on the method and setting. Some binding calls cover weakened binding; strength is not graded here.

In assay [1] the target is recombinant human HGF receptor (c-Met)/Fc chimera (human) (UniProt P08581). Briefly: affinity chromatography with SDS-PAGE; Hi-trap column immobilised with recombinant human c-Met/Fc chimera; reconstituted faeces applied; purified material run on SDS-PAGE; only the target purified.
For assay [2] the target is unchanged. The experiment in a line: SPR; c-Met/Fc chimera amine-coupled to a CM5 chip (Biacore 2000 / Biacore X), reconstituted faecal samples with protease inhibitor injected, 25°C; reference flow cell without ligand subtracted; only the target purified. (In SPR one partner is held on a chip, and binding of the other changes the refractive index at the surface.)
The target is the same in assay [3]. The experiment in a line: SPR; recombinant HGF examined on immobilised c-met receptor; data not shown; both purified.

In the case of “Hepatocyte growth factor (HGF) in reconstituted faecal samples of patients (from UniProt P14210 32-728) (ligand)”, the binding entry in assay [1] and in assay [2] was “binds” each time.

As to “recombinant HGF (from UniProt P14210 32-728) (ligand)”, in assay [3], the binding result is listed as “binds”.
